From US12503439B2, “Heteroaryl compounds for the treatment of pain” (VERTEX PHARMACEUTICALS INCORPORATED, priority 2022, dated 2025)
Some of these results come from one statement about several compounds together.

Amino acid sequences for entries named in this document (tags omitted). Residues count along the entry.
UniProt Q9Y5Y9, 126-1722 limits assumed: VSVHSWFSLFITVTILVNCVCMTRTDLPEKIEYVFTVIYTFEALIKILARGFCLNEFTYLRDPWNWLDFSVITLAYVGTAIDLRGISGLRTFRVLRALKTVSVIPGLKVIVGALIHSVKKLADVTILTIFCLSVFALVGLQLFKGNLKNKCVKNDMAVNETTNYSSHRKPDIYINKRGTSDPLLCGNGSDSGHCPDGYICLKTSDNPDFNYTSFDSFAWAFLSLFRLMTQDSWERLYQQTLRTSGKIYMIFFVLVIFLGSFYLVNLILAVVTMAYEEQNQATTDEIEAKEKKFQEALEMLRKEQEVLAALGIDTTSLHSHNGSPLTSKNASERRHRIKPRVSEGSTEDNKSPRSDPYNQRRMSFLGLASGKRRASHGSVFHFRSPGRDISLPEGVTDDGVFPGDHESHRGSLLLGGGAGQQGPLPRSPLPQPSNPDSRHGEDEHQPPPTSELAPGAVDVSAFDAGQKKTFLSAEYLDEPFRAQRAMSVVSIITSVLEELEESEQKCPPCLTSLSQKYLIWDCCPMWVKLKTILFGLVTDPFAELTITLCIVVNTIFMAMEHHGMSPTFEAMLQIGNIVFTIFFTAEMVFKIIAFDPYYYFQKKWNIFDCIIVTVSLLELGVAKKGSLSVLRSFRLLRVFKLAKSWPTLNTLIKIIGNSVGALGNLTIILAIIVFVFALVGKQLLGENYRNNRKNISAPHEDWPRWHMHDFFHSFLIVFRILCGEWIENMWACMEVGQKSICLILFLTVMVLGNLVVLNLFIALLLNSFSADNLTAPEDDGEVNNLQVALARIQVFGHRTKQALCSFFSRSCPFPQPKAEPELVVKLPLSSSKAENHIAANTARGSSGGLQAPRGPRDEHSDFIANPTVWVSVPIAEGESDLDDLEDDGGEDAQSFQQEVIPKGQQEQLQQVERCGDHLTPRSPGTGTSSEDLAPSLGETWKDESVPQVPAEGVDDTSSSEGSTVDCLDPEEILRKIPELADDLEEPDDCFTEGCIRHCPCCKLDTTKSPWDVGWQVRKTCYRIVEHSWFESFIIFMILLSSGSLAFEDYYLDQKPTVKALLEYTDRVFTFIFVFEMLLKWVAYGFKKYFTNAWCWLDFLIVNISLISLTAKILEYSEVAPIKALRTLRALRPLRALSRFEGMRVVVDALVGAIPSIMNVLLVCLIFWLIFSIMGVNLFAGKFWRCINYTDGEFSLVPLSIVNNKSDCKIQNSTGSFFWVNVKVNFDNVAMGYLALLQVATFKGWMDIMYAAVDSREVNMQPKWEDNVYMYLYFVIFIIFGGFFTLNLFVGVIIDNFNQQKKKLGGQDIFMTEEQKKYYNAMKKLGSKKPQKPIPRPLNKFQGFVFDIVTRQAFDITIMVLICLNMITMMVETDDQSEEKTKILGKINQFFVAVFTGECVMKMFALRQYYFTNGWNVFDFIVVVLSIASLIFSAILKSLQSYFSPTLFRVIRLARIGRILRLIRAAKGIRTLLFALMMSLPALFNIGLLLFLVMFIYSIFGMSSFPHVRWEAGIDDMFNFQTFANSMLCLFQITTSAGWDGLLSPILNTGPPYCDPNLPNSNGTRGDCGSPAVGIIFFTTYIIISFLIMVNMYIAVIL

Target: truncated form of human NaV 1.8 with full channel activity (expressed in HEK cells) (Homo sapiens, UniProt Q9Y5Y9)
Test: E-VIPR assay detecting and measuring NaV inhibition properties (electrical stimulation, membrane potential FRET dyes)
Assay type: cell-based
Details: read-out: measured IC50 value in the E-VIPR Assay
Description: E-VIPR Assay Detecting and Measuring NaV Inhibition Properties
Sodium ion channels are voltage-dependent proteins that can be activated by inducing membrane voltage changes by applying electric fields. […] The instrument comprises a microtiter plate handler, an optical system for exciting the coumarin dye while simultaneously recording the coumarin and oxonol emissions, a waveform generator, a current- or voltage-controlled amplifier, and parallel electrode pairs that are inserted into assay plate wells. Under integrated computer control, this instrument passes user-programmed electrical stimulus protocols to cells within the wells of the microtiter plate. […]
The compound plate was backfilled with 45 μL per well of Compound Loading Buffer resulting in a 240-fold dilution of compound following a 1:1 transfer of compound into the cell plate (see Step 6). […] The mixture was incubated for 30 minutes at room temperature/ambient conditions. • 7) The cell plate containing compound was read on E-VIPR using the current-controlled amplifier to deliver stimulation wave pulses using a symmetrical biphasic waveform. […] All E-VIPR responses were measured at 200 Hz acquisition rate. […]
The data were normalized by calculating the initial (Ri) and final (Rf) ratios. […] The fluorescence ratio (Rf/Ri) was then calculated and reported as a function of time. […]

| Substance | IC50 |
| --- | --- |
| 2-[2-(3,4-difluoro-2-methyl-phenoxy)-4-methyl-5-(trifluoromethyl)-3-pyridyl]-5-(4-methylimidazol-1-yl)-1H-1,6-naphthyridin-4-one [Compound 249] | < 500 nM |
| 2-[2-(3,4-difluoro-2-methyl-phenoxy)-4-methyl-5-(trifluoromethyl)-3-pyridyl]-5-(1,5-dimethyltriazol-4-yl)-1H-1,6-naphthyridin-4-one [Compound 221] | < 500 nM |
